Test results taken from PMC4308083, “Cytokine-Induced Loss of Glucocorticoid Function: Effect of Kinase Inhibitors, Long-Acting β2-Adrenoceptor Agonist and Glucocorticoid Receptor Ligands” (PLoS ONE, 2015).

Test system: CDKN1C, DUSP1, RGS2 and TSC22D3 mRNA in BEAS-2B cells
Test: RT-PCR of glucocorticoid-inducible gene expression in BEAS-2B cells

SMILES: COc1ccc(CC(C)NCC(O)c2ccc(O)c(NC=O)c2)cc1 (stereo not shown) [formoterol]
- Effect on dexamethasone-induced CDKN1C and RGS2 mRNA induction: significantly enhanced
